{"source": "patent US11746124B2", "about": "(FORSCHUNGSVERBUND BERLIN E.V., priority 2016, dated 2023)", "assay": "general procedure: Fmoc solid-phase peptide synthesis; Rink amide resin (0.4 mmol/g; 0.78 mmol/g); NovaSynTGT alcohol resin (0.26 mmol/g) for c(RGDfK); HOBt/HBTU/DIPEA; HATU/DIPEA", "details": "conjugation step"}
{"substance": "Amidate-Val-Cit-Pab-MMAF", "values": [{"measurement": "conjugation yield", "result": 19.2, "unit": "%"}]}
